Laboratory results published in paper PMC9253104.
Results are given in words; binding and its absence hold for the method and conditions named. In cells and extracts the contact can be indirect. Some results given as binding are weak or reduced against the parent protein; the word gives no strength. Where a sequence is shown, tags or fusion partners need not be part of it.

Protein sequences, listed by entry. Tags and fused reporters are not part of them.
UniProt Q00944: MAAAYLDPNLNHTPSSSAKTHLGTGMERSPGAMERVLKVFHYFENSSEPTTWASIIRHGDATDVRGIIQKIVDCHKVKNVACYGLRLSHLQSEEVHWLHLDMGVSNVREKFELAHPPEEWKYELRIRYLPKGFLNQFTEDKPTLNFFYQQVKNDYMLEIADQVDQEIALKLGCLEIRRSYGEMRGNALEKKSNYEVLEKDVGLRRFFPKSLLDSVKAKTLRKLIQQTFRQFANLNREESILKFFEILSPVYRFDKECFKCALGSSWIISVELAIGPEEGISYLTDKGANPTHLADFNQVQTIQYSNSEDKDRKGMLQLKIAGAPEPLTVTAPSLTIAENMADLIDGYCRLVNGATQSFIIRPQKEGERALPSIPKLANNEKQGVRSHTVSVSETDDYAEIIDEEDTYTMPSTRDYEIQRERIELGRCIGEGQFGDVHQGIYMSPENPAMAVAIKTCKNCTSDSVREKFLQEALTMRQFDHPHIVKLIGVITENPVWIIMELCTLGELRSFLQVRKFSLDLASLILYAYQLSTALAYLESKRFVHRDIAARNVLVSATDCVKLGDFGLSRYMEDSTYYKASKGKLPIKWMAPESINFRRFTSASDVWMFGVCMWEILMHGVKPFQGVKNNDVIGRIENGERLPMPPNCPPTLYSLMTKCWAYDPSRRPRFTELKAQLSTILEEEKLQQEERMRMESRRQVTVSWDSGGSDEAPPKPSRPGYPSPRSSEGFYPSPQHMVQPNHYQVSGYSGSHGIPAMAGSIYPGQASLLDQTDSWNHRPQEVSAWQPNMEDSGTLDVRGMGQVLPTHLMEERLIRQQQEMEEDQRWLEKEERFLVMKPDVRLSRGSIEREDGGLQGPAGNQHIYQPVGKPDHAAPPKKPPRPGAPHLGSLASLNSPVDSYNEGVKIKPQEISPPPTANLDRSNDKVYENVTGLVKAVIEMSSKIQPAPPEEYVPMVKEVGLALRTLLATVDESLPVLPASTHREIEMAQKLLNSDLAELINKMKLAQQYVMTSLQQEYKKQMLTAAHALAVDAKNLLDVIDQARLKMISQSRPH

Columns and labels:
GST-Simiate [1] = target: T1, GST-Simiate (UniProt Q80ZQ9); test: pull-down; GST-Simiate or GST on Glutathione sepharose beads with nuclear extracts of HEK293 cells expressing GFP proteins (sucrose gradient centrifugation and ultra sound); Ripa-buffer; Western blot; only the target purified
T1 sequence: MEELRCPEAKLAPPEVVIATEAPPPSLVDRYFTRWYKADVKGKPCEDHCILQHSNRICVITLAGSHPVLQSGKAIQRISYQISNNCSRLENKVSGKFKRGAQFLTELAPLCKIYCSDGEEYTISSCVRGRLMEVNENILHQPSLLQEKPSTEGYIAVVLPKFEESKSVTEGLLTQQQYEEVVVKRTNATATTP

GST-Simiate [2] = target: T1, GST-Simiate; test: pull-down; 50 ug GST-Simiate or GST on Glutathione sepharose beads, incubated over night at 4 °C with the cytosolic fraction of HEK293 cells expressing GFP proteins; Ripa-buffer; three washes; Western blot; only the target purified

- binding (GST-Simiate [1]): binds
- binding (GST-Simiate [2]): binds
Substance: GFP-FAK1 (from UniProt Q00944 1-1053)
